In this assay the target is Flag-tagged N-terminal domain of ODF2L (human). The assay is described as follows: co-IP; immunoprecipitation against Flag from EOC cells cotransfected with Myc-PKMYT1, CDK1-V5 or Flag-tagged truncated ODF2L domains, followed by immunoblotting.

No constants are given. Whether binding was seen depends on the method and setting. In cells and extracts the contact can be indirect. A result given as binding can be weak or reduced; the word gives no strength. Tags and fused reporters may be left off the sequences shown.

B1: Myc-PKMYT1 (enzyme, UniProt Q99640 1-499)
chain: MLERPPALAMPMPTEGTPPPLSGTPIPVPAYFRHAEPGFSLKRPRGLSRSLPPPPPAKGSIPISRLFPPRTPGWHQLQPRRVSFRGEASETLQSPGYDPSRPESFFQQSFQRLSRLGHGSYGEVFKVRSKEDGRLYAVKRSMSPFRGPKDRARKLAEVGSHEKVGQHPCCVRLEQAWEEGGILYLQTELCGPSLQQHCEAWGASLPEAQVWGYLRDTLLALAHLHSQGLVHLDVKPANIFLGPRGRCKLGDFGLLVELGTAGAGEVQEGDPRYMAPELLQGSYGTAADVFSLGLTILEVACNMELPHGGEGWQQLRQGYLPPEFTAGLSSELRSVLVMMLEPDPKLRATAEALLALPVLRQPRAWGVLWCMAAEALSRGWALWQALLALLCWLWHGLAHPASWLQPLGPPATPPGSPPCSLLLDSSLSSNWDDDSLGPSLSPEAVLARTVGSTSTPRSRCTPRDALDLSDINSEPPRGSFPSFEPRNLLSLFEDTLDPT
Consider B1, for which the binding result is listed as “binds”.

The values above are taken from paper PMC9843051.
